One substance from paper PMC13589956, “Engineered flavonoid disrupts mitochondrial AIF/CHCHD4 complex for targeted cancer therapy” (Acta Pharmaceutica Sinica. B, 2026) can be followed below.

By UniProt entry, the sequences of proteins in these tests, tags left out. Residues count along the entry.
UniProt O95831, residues 102-613: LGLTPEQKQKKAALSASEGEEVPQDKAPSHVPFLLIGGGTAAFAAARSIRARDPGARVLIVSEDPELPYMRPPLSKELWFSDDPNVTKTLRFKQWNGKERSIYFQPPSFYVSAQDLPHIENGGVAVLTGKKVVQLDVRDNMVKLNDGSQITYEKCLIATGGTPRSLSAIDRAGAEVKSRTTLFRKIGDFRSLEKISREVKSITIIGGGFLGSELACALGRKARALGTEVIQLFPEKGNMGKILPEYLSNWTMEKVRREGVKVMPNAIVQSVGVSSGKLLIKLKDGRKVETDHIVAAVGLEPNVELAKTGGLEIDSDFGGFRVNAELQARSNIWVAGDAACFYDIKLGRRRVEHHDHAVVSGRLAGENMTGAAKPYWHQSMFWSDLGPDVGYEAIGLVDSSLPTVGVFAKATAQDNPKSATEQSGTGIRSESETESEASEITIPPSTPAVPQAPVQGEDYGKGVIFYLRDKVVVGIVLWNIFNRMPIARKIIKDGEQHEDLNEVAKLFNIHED

This experiment concerns the target T1, coiled-coil-helix-coiled-coil-helix domain-containing protein 4 (CHCHD4), endogenous in HOS cells (human (endogenous in HOS)) (UniProt Q8N4Q1).
T1 sequence: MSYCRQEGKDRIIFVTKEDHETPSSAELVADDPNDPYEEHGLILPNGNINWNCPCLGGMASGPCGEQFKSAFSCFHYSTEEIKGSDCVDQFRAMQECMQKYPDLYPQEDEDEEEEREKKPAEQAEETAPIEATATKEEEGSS
The experiment can be described thus: co-IP; anti-CHCHD4 antibody on Dynabeads M-280, HOS cell lysate in 1% NP-40 buffer (50 mmol/L Tris pH 8.0, 150 mmol/L NaCl), overnight at 4 °C; blot for AIF and CHCHD4; cells treated with 0.002% DMSO or 8.3 μmol/L M30-E05 for 1, 2, 4, 6 h.

These are yes or no findings as the source states them, for the method shown. In cells and extracts the contact can be indirect. Some entries that bind do so weakly or less than the wild type.

Consider “apoptosis-inducing factor (AIF), endogenous in HOS cells (from UniProt O95831 102-613)”, for which the binding entry was “binds”.
